# Counter-ions that a name gives are not always drawn. The list shows a part of the results. Repeats in this data set agree poorly, so a single value says little.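 Wild-type human LRH-1, a heavily sumoylated nuclear receptor, is tetracycline-inducible in stable JEG3 cells. RT-qPCR measured SUMO-sensitive APOC3 and MUC1 transcripts, which rise with SUMO-less LRH-1 or UBC9 knockdown, versus TBP and DMSO controls. Robust Z-scores beyond ±2 flagged primary hits, followed by toxicity and TBP filtering.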
# Test system: JEG3 expressing hLRH-1
# Test: MUC1 transcript change (ddCt vs TBP and DMSO), Z-score over library; higher = higher MUC1 expression
# Details: 10 µM; time (hr): 24
row,SMILES,MUC1 transcript change (Z-score)
1,CCN(CC)CCOC(=O)c1ccc(N)cc1 [procaine hydrochloride],0.105
2,O=c1c(Cc2c(O)oc3ccccc3c2=O)c(O)oc2ccccc12 [dicumarol],-0.294
3,CC(C)(C)CC(C)(C)c1cc(Cc2cc(C(C)(C)CC(C)(C)C)cc(-n3nc4ccccc4n3)c2O)c(O)c(-n2nc3ccccc3n2)c1 [bisoctrizole],0.724
4,CC(C)CCCC(C)N (stereo not drawn) [octodrine],-1.49
5,CC(=O)N[C@@H](CS)C(=O)O [acetylcysteine],0.448
6,CN1CCN(CCCN2c3ccccc3Sc3ccc(Cl)cc32)CC1 [Prochlorperazine dimaleate],-0.367
7,CC(=O)O[C@H]1C[C@@]2(C)[C@@H](C[C@@H](O)[C@H]3[C@@]4(C)CC[C@@H](O)[C@@H](C)[C@@H]4CC[C@@]32C)/C1=C(\CCC=C(C)C)C(=O)O [fusidic acid],0.755
8,CC(C)N1CCN(c2ccc(OC[C@H]3CO[C@](Cn4cncn4)(c4ccc(Cl)cc4Cl)O3)cc2)CC1 [terconazole],0.612
9,Cc1cc(-n2c(=O)[nH]c(=O)n(C)c2=O)ccc1Oc1ccc(SC(F)(F)F)cc1 [toltrazuril],-0.804
10,Cc1ccnc(NS(=O)(=O)c2ccc(N)cc2)n1 [sulfamerazine],0.46
11,NCCCC(O)(P(=O)(O)O)P(=O)(O)O [alendronate sodium],0.947
12,CNC[C@H](O)[C@@H](O)[C@H](O)[C@H](O)CO [meglumine],0.415
13,CNCCC(Oc1ccc(C(F)(F)F)cc1)c1ccccc1 (stereo not drawn) [Fluoxetine hydrochloride],0.869
14,O=C(CCCCCCC(=O)Nc1ccccc1)NO [vorinostat],-0.152
15,CCN(CC)CCOC(=O)C1(C2CCCCC2)CCCCC1 [dicyclomine hydrochloride],0.465
16,Cc1ccc(C(=O)C(C)CN2CCCCC2)cc1 (stereo not drawn) [tolperisone hydrochloride],0.219
17,NC(=O)c1ncn([C@@H]2O[C@H](CO)[C@@H](O)[C@H]2O)n1 [ribavirin],-1.38
18,CCC(=O)O[C@H](CC(=O)O)C[N+](C)(C)C [levocarnitine propionate hydrochloride],0.735
19,CC(=O)N[C@@H](CC(=O)O)C(=O)N[C@@H](CCC(=O)O)C(=O)O [spaglumic acid],0.663
20,CO[C@@]1(NC(=O)C2SC(=C(C(N)=O)C(=O)O)S2)C(=O)N2C(C(=O)O)=C(CSc3nnnn3C)CS[C@@H]21 (stereo partly drawn) [cefotetan],-0.392
21,CC/C(=C(\c1ccccc1)c1ccc(OCCN(C)C)cc1)c1ccccc1 [Tamoxifen citrate],0.145
22,CC(C(=O)O)c1cccc(CC2CCCC2=O)c1 (stereo not drawn) [loxoprofen],0.642
23,CCCc1nc(C(C)(C)O)c(C(=O)OCc2oc(=O)oc2C)n1Cc1ccc(-c2ccccc2-c2nn[nH]n2)cc1 [olmesartan medoxomil],0.346
24,CC(CN1c2ccccc2Sc2ccccc21)N(C)C (stereo not drawn) [Promethazine hydrochloride],-0.00897
25,CC1=C(C(=O)O)N2C(=O)[C@@H](NC(=O)C(N)c3ccccc3)[C@H]2SC1 (stereo partly drawn) [cephalexin],-1.78

row,SMILES,MUC1 transcript change (Z-score)
1,CCOc1ccc2nc(S(N)(=O)=O)sc2c1 [ethoxzolamide],0.31
2,CCN(CC)CCOc1ccc2c(c1)C(=O)c1cc(OCCN(CC)CC)ccc1-2 [tilorone],-1.06
3,CC(C)[C@@H]1CC[C@@H](C)C[C@H]1O [(-)-menthol],-0.49
4,CCOC(=O)COc1ccc2c(=O)cc(-c3ccccc3)oc2c1 [efloxate],-0.222
5,COc1ccccc1OCC(O)CN1CCN(CC(=O)Nc2c(C)cccc2C)CC1 (stereo not drawn) [ranolazine],0.79
6,N=c1ccn2c(n1)O[C@H]1[C@H](O)[C@@H](CO)O[C@H]12 [ancitabine hydrochloride],0.907
7,CC(=O)Oc1c(C)cccc1C(=O)O [cresopyrine],0.273
8,C#C[C@]1(O)CCC2C3CCC4=CC(=O)CC[C@@H]4C3CC[C@@]21C (stereo partly drawn) [norethindrone],-0.288
9,N[C@H](Cc1ccccc1)C(=O)O [d-phenylalanine],0.939
10,CNCC[C@H](Oc1cccc2ccccc12)c1cccs1 [duloxetine hydrochloride],-0.297
11,NC(N)=O [urea],0.284
12,COc1ccc2cc(CCC(C)=O)ccc2c1 [nabumetone],-0.246
13,CNC[C@H](O)c1cccc(O)c1 [Phenylephrine hydrochloride],0.268
14,CC(C)(CO)[C@@H](O)C(=O)NCCCO [dexpanthenol],0.392
15,CCOC(=O)[C@H](CCc1ccccc1)N[C@@H](C)C(=O)N1[C@H](C(=O)O)C[C@H]2CCCC[C@@H]21 [trandolapril],0.0139
16,OC(CCN1CCCCC1)(c1ccccc1)C1CC2C=CC1C2 (stereo not drawn) [biperiden],-0.36
17,CCC(c1ccc(O)cc1)C(CC)c1ccc(O)cc1 (stereo not drawn) [hexestrol],0.439
18,CC(/N=C(\NC#N)Nc1ccncc1)C(C)(C)C (stereo not drawn) [Pinacidil],0.138
19,COCCO/C(O)=C1\C(C)=NC(C)=C(C(=O)OC(C)C)C1c1cccc([N+](=O)[O-])c1 (stereo not drawn) [Nimodipine],0.0237
20,CCCCC(CC)C/N=C(N)/N=C(\N)NCCCCCCN/C(N)=N/C(N)=N/CC(CC)CCCC (stereo not drawn) [alexidine hydrochloride],0.0911
21,CN[C@@H]1[C@H](OC2[C@H](O[C@H]3[C@H](O)[C@@H](O)[C@H](N=C(N)N)[C@@H](O)[C@@H]3N=C(N)N)O[C@@H](C)[C@]2(O)C=O)O[C@@H](CO)[C@H](O)[C@H]1O (stereo partly drawn) [streptomycin sulfate],0.533
22,CO[C@H]1C[C@@H]2CC[C@@H](C)[C@@](O)(O2)C(=O)C(=O)N2CCCC[C@H]2C(=O)O[C@H]([C@H](C)C[C@@H]2CC[C@@H](O)[C@H](OC)C2)CC(=O)[C@H](C)/C=C(\C)[C@@H](O)[C@@H](OC)C(=O)[C@H](C)C[C@H](C)/C=C/C=C/C=C/1C [sirolimus],-2.09
23,C[C@@H](O)[C@H]1C(=O)N2C(C(=O)O)=C(SCC/N=C/N)C[C@H]12 [imipenem],-0.0178
24,C[C@]12CCC(=O)C=C1CCC1C2[C@@H](O)C[C@@]2(C)C1CC[C@]2(O)C(=O)CO (stereo partly drawn) [hydrocortisone],-1.08
25,C#C[C@]1(O)CC[C@H]2[C@@H]3CCc4cc(OC)ccc4[C@H]3CC[C@@]21C [mestranol],-0.321

row,SMILES,MUC1 transcript change (Z-score)
1,Nc1nc(F)nc2c1ncn2[C@@H]1O[C@H](COP(=O)(O)O)[C@@H](O)[C@@H]1O [fludarabine phosphate],0.706
2,CCN1CCCC1CNC(=O)c1cc(S(=O)(=O)CC)c(N)cc1OC (stereo not drawn) [amisulpride],-0.657
3,Cc1c(C(N)=O)cc([N+](=O)[O-])cc1[N+](=O)[O-] [dinitolmide],0.781
4,Cc1nc(C)c(Cl)c(O)c1Cl [clopidol],0.845
5,[NH2][Pt]([NH2])([Cl])[Cl] [cisplatin],0.145
6,"Nc1c2c(nc3ccccc13)CCCC2 [9-Amino-1,2,3,4-tetrahydroacridine hydrochloride]",0.713
7,C[C@@H]1CN(c2c(F)c(N)c3c(=O)c(C(=O)O)cn(C4CC4)c3c2F)C[C@H](C)N1 [sparfloxacin],0.47
8,CC1(C)S[C@@H]2[C@H](NC(=O)[C@H](C(=O)O)c3cccs3)C(=O)N2[C@H]1C(=O)O [ticarcillin disodium],0.0368
9,OC(CCN1CCCCC1)(c1ccccc1)c1ccccc1 [pridinol methanesulfonate],0.233
10,CN(C)c1ccc2nc3ccc(N(C)C)cc3[s+]c2c1 [methylene blue],1.69
11,OCc1ccccc1 [benzyl alcohol],-1.34
12,CCC1=C[C@@H]2CN(C1)Cc1c([nH]c3ccccc13)[C@@](C(=O)OC)(c1cc3c(cc1OC)N(C)[C@H]1[C@@](O)(C(=O)OC)[C@H](OC(C)=O)[C@]4(CC)C=CCN5CC[C@]31[C@@H]54)C2 [vinorelbine],-0.458
13,CCOC(=O)CCC(=O)O[C@H]1[C@H](O[C@@H]2[C@@H](C)[C@H](O[C@H]3C[C@@](C)(OC)[C@@H](O)[C@H](C)O3)[C@@H](C)C(=O)O[C@H](CC)[C@@](C)(O)[C@H](O)[C@@H](C)C(=O)[C@H](C)C[C@@]2(C)O)O[C@H](C)C[C@@H]1N(C)C [erythromycin ethylsuccinate],-0.261
14,C[C@H]1[C@H](NC(=O)/C(=N\OC(C)(C)C(=O)O)c2csc(N)n2)C(=O)N1S(=O)(=O)O [aztreonam],-1.88
15,CCCCCCCCCCCCCCCC(=O)OCC(O)[C@H]1OC(O)=C(O)C1=O (stereo partly drawn) [ascorbyl palmitate],-0.0175
16,CC(C[N+](C)(C)C)OC(N)=O (stereo not drawn) [Bethanechol chloride],0.396
17,CO/N=C1\CN(c2nc3c(cc2F)c(=O)c(C(=O)O)cn3C2CC2)CC1CN (stereo not drawn) [gemifloxacin mesylate],-0.0994
18,CC(=O)N1CCN(c2ccc(OCC3CO[C@](Cn4ccnc4)(c4ccc(Cl)cc4Cl)O3)cc2)CC1 (stereo partly drawn) [ketoconazole],-0.2
19,O=C(Nc1ccc(C(=O)O)c(O)c1)c1ccccc1 [benzoylpas],0.382
20,c1ccc(C2CN3CCSC3=N2)cc1 (stereo not drawn) [tetramizole hydrochloride],-0.821
21,CC(C)Cc1ccc(C(C)C(=O)O)cc1 (racemic) [(±)-Ibuprofen],0.232
22,CCOc1nc2cccc(C(=O)OCc3oc(=O)oc3C)c2n1Cc1ccc(-c2ccccc2-c2noc(O)n2)cc1 [azilsartan kamedoxomil],-0.499
23,C#C[C@]1(O)CC[C@H]2[C@@H]3[C@H](C)CC4=C(CCC(=O)C4)[C@H]3CC[C@@]21C [tibolone],0.459

# Already shown: 19 of the compounds above.
row,SMILES,MUC1 transcript change (Z-score)
17,CCC(c1ccc(O)cc1)C(CC)c1ccc(O)cc1 (stereo not drawn) [hexestrol],0.439
18,CC(/N=C(\NC#N)Nc1ccncc1)C(C)(C)C (stereo not drawn) [Pinacidil],0.138
19,COCCO/C(O)=C1\C(C)=NC(C)=C(C(=O)OC(C)C)C1c1cccc([N+](=O)[O-])c1 (stereo not drawn) [Nimodipine],0.0237
20,CCCCC(CC)C/N=C(N)/N=C(\N)NCCCCCCN/C(N)=N/C(N)=N/CC(CC)CCCC (stereo not drawn) [alexidine hydrochloride],0.0911
21,CN[C@@H]1[C@H](OC2[C@H](O[C@H]3[C@H](O)[C@@H](O)[C@H](N=C(N)N)[C@@H](O)[C@@H]3N=C(N)N)O[C@@H](C)[C@]2(O)C=O)O[C@@H](CO)[C@H](O)[C@H]1O (stereo partly drawn) [streptomycin sulfate],0.533
22,CO[C@H]1C[C@@H]2CC[C@@H](C)[C@@](O)(O2)C(=O)C(=O)N2CCCC[C@H]2C(=O)O[C@H]([C@H](C)C[C@@H]2CC[C@@H](O)[C@H](OC)C2)CC(=O)[C@H](C)/C=C(\C)[C@@H](O)[C@@H](OC)C(=O)[C@H](C)C[C@H](C)/C=C/C=C/C=C/1C [sirolimus],-2.09
23,C[C@@H](O)[C@H]1C(=O)N2C(C(=O)O)=C(SCC/N=C/N)C[C@H]12 [imipenem],-0.0178
24,C[C@]12CCC(=O)C=C1CCC1C2[C@@H](O)C[C@@]2(C)C1CC[C@]2(O)C(=O)CO (stereo partly drawn) [hydrocortisone],-1.08
25,C#C[C@]1(O)CC[C@H]2[C@@H]3CCc4cc(OC)ccc4[C@H]3CC[C@@]21C [mestranol],-0.321
1,Nc1nc(F)nc2c1ncn2[C@@H]1O[C@H](COP(=O)(O)O)[C@@H](O)[C@@H]1O [fludarabine phosphate],0.706
2,CCN1CCCC1CNC(=O)c1cc(S(=O)(=O)CC)c(N)cc1OC (stereo not drawn) [amisulpride],-0.657
3,Cc1c(C(N)=O)cc([N+](=O)[O-])cc1[N+](=O)[O-] [dinitolmide],0.781
4,Cc1nc(C)c(Cl)c(O)c1Cl [clopidol],0.845
5,[NH2][Pt]([NH2])([Cl])[Cl] [cisplatin],0.145
6,"Nc1c2c(nc3ccccc13)CCCC2 [9-Amino-1,2,3,4-tetrahydroacridine hydrochloride]",0.713
7,C[C@@H]1CN(c2c(F)c(N)c3c(=O)c(C(=O)O)cn(C4CC4)c3c2F)C[C@H](C)N1 [sparfloxacin],0.47
8,CC1(C)S[C@@H]2[C@H](NC(=O)[C@H](C(=O)O)c3cccs3)C(=O)N2[C@H]1C(=O)O [ticarcillin disodium],0.0368
9,OC(CCN1CCCCC1)(c1ccccc1)c1ccccc1 [pridinol methanesulfonate],0.233
10,CN(C)c1ccc2nc3ccc(N(C)C)cc3[s+]c2c1 [methylene blue],1.69
